{"source": "patent US20090202520A1", "biological_target": "keyhole limpet hemocyanin (KLH)", "assay": "SPR (Biacore X100), CRP flowed over KLH immobilised on a CM5 flow cell", "note": "Results are given in words; binding and its absence hold for the method and conditions named."}
{"binder": "C-reactive protein (CRP) (ligand, human, UniProt P02741 19-224, looked up) QTDMSRKAFVFPKESDTSYVSLKAPLTKPLKAFTVCLHFYTELSSTRGYSIFSYATKRQDNEILIFWSKDIGYSFTVGGSEILFEVPEVTVAPVHICTSWESASGIVEFWVDGKPRVRKSLKKGYTVGAEASIILGQEQDSFGGNFEGSQSLVGDIGNVNMWDFVLSPDEINTIYLGGPFSPNVLNWRALKYEVQGEVFTKPQLWP", "values": [{"measurement": "binding", "value": "no binding"}]}
